Values from PubChem BioAssay AID686938 (Drosophila RNAi Screening Center, 2013).
Aim: 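Looking for CRAC channel components and the factors controlling them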 (primary screen). System: Drosophila S2R+ cells. Knock-down reagent: long dsRNA against Drosophila genes, about 0.25 µg dsRNA per well, roughly 10,000 cells. Duration: 5 days of knock-down before the calcium assay. Treatment: thapsigargin (SERCA pump blocker) to empty calcium stores; entry signal taken 4 min after adding it. Measured: 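Duplicate raw fluo-4 intensities per well from a plate reader, at rest and four minutes after thapsigargin emptied calcium stores; entry-to-rest ratio filled for only some wells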. Reading the numbers: calcium entry signal: higher = stronger calcium signal after store depletion; resting calcium signal: higher = higher resting calcium signal. Units: calcium entry signal in fluorescence units; resting calcium signal in fluorescence units. Call rule: 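Hit if the duplicate-averaged plate z-score for entry over resting signal is under −3; wells with weak total dye signal (Fmax z < −2) or more than 5 off-targets removed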. Meaning of the calls: active = strongly reduced calcium entry; inactive = no strong reduction.
The screen tested about 23,000 reagents; below is an unselected part of those with a known target gene and a result. Over the whole deposit, 75 (0.33%) are marked active. 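Raw plate signals without normalisation; calls rest on plate z-scores that were not deposited; ratio present for only 364 wells.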 Entries without a mark were called inactive. Reagent sequences are not shown. Not given: the dose of the treatment.

Against OdsH [DRSC20263], the values are calcium entry signal, replicate 1 = 3.74e7; calcium entry signal, replicate 2 = 2.95e7; resting calcium signal, replicate 1 = 1.81e7; resting calcium signal, replicate 2 = 1.25e7. Grx5 [DRSC19593] showed calcium entry signal, replicate 1 = 4.21e7; calcium entry signal, replicate 2 = 4.09e7; resting calcium signal, replicate 1 = 2.01e7; resting calcium signal, replicate 2 = 1.70e7. Against CG12241 [DRSC14481], the values are calcium entry signal, replicate 1 = 3.74e7; calcium entry signal, replicate 2 = 4.08e7; resting calcium signal, replicate 1 = 1.58e7; resting calcium signal, replicate 2 = 1.82e7. zetaTry [DRSC07720] showed calcium entry signal, replicate 1 = 2.77e7; calcium entry signal, replicate 2 = 4.16e7; resting calcium signal, replicate 1 = 1.50e7; resting calcium signal, replicate 2 = 1.74e7. With knock-down of CG14868 [DRSC14991] the results were calcium entry signal, replicate 1 = 3.24e7; calcium entry signal, replicate 2 = 2.53e7; resting calcium signal, replicate 1 = 1.64e7; resting calcium signal, replicate 2 = 1.33e7. Against sti [DRSC09739], the entry reads calcium entry signal, replicate 1 = 1.80e7; calcium entry signal, replicate 2 = 1.68e7; resting calcium signal, replicate 1 = 1.19e7; resting calcium signal, replicate 2 = 1.09e7.

Knock-down of sti [DRSC09740] gave: calcium entry signal, replicate 1 = 1.73e7 (active); calcium entry signal, replicate 2 = 1.68e7; resting calcium signal, replicate 1 = 1.15e7; resting calcium signal, replicate 2 = 1.14e7.

Reagents listed so far called active:
sti [DRSC09740] → calcium entry signal, replicate 1: 1.73e7 (active); calcium entry signal, replicate 2: 1.68e7; resting calcium signal, replicate 1: 1.15e7; resting calcium signal, replicate 2: 1.14e7

Additional reagents follow.
With knock-down of CG31886 [DRSC03248], the record shows calcium entry signal, replicate 1 = 5.84e7; resting calcium signal, replicate 1 = 2.65e7. After knock-down of ThrRS [DRSC02843], the screen gave calcium entry signal, replicate 1 = 4.54e7; resting calcium signal, replicate 1 = 2.17e7. With knock-down of CG3770 [DRSC04416], the record shows calcium entry signal, replicate 1 = 2.97e7; resting calcium signal, replicate 1 = 1.36e7. After knock-down of RpL24-like [DRSC16111], the screen gave calcium entry signal, replicate 1 = 2.18e7; calcium entry signal, replicate 2 = 2.34e7; resting calcium signal, replicate 1 = 1.42e7; resting calcium signal, replicate 2 = 1.52e7. With knock-down of CG14591 [DRSC04868], the record shows calcium entry signal, replicate 1 = 4.67e7; calcium entry signal, replicate 2 = 5.17e7; resting calcium signal, replicate 1 = 2.33e7; resting calcium signal, replicate 2 = 2.44e7.
